Results published in the supplement of paper PMC8612539.
≈ marks a conversion by molar mass, not a printed value. Further values from the same series stand in other lists.

Tested on: Escherichia coli
Test: minimum inhibitory concentration (MIC)
Protocol: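 Broth microdilution MIC (Sensititre BOPO7F bovine plate, CLSI methods) of 19 antimicrobials against field isolates of P. multocida, M. haemolytica, H. somni (deep nasopharyngeal swabs) and E. coli, Enterococcus spp. (rectal swabs) from weaned dairy heifers. Incubation 16-24 h at 35 C. MIC is the lowest concentration preventing visible growth. Values with <= or > lie at the tested range limits. Trimethoprim-sulfamethoxazole is given as the trimethoprim component of a 1:19 mixture.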

CN[C@@H]1[C@H](O)[C@H](NC)[C@H]2O[C@@]3(O)C(=O)C[C@@H](C)O[C@H]3O[C@@H]2[C@H]1O [Spectinomycin]
Conditions	minimum inhibitory concentration [µg/mL]
isolate (source animal id): 281	16 (≈ 48.1 µM)
isolate (source animal id): 282	16 (≈ 48.1 µM)
isolate (source animal id): 283	16 (≈ 48.1 µM)
isolate (source animal id): 284	> 64
isolate (source animal id): 285	≤ 8
isolate (source animal id): 286	> 64
isolate (source animal id): 287	> 64
isolate (source animal id): 288	16 (≈ 48.1 µM)
isolate (source animal id): 289	16 (≈ 48.1 µM)
isolate (source animal id): 290	16 (≈ 48.1 µM)
isolate (source animal id): 291	> 64
isolate (source animal id): 292	16 (≈ 48.1 µM)
isolate (source animal id): 293	32 (≈ 96.3 µM)
isolate (source animal id): 294	16 (≈ 48.1 µM)
isolate (source animal id): 295	> 64
isolate (source animal id): 296	16 (≈ 48.1 µM)
isolate (source animal id): 297	≤ 8
isolate (source animal id): 298	> 64
isolate (source animal id): 299	16 (≈ 48.1 µM)
isolate (source animal id): 300	16 (≈ 48.1 µM)
isolate (source animal id): 301	16 (≈ 48.1 µM)
isolate (source animal id): 302	16 (≈ 48.1 µM)
isolate (source animal id): 303	16 (≈ 48.1 µM)
isolate (source animal id): 304	16 (≈ 48.1 µM)
isolate (source animal id): 305	32 (≈ 96.3 µM)
isolate (source animal id): 306	16 (≈ 48.1 µM)
isolate (source animal id): 307	16 (≈ 48.1 µM)
isolate (source animal id): 308	16 (≈ 48.1 µM)
isolate (source animal id): 309	16 (≈ 48.1 µM)
isolate (source animal id): 310	16 (≈ 48.1 µM)
isolate (source animal id): 311	> 64
isolate (source animal id): 312	32 (≈ 96.3 µM)
isolate (source animal id): 313	16 (≈ 48.1 µM)
isolate (source animal id): 314	16 (≈ 48.1 µM)
isolate (source animal id): 315	16 (≈ 48.1 µM)
isolate (source animal id): 316	> 64
isolate (source animal id): 317	> 64
isolate (source animal id): 318	16 (≈ 48.1 µM)
isolate (source animal id): 319	16 (≈ 48.1 µM)
isolate (source animal id): 320	≤ 8
isolate (source animal id): 321	> 64
isolate (source animal id): 322	32 (≈ 96.3 µM)
isolate (source animal id): 323	> 64
isolate (source animal id): 324	16 (≈ 48.1 µM)
isolate (source animal id): 325	> 64
isolate (source animal id): 326	16 (≈ 48.1 µM)
isolate (source animal id): 327	16 (≈ 48.1 µM)
isolate (source animal id): 328	≤ 8
isolate (source animal id): 329	16 (≈ 48.1 µM)
isolate (source animal id): 330	32 (≈ 96.3 µM)
isolate (source animal id): 331	> 64
isolate (source animal id): 332	≤ 8
isolate (source animal id): 333	16 (≈ 48.1 µM)
isolate (source animal id): 334	> 64
isolate (source animal id): 335	16 (≈ 48.1 µM)
isolate (source animal id): 336	16 (≈ 48.1 µM)
isolate (source animal id): 337	> 64
isolate (source animal id): 338	> 64
isolate (source animal id): 339	≤ 8
isolate (source animal id): 340	16 (≈ 48.1 µM)
isolate (source animal id): 341	≤ 8
